Results as given in PMC5268738, “A sequential multi-target Mps1 phosphorylation cascade promotes spindle checkpoint signaling” (eLife, 2017).
No constants are given. Whether binding was seen depends on the method and setting. Some binding calls cover weakened binding; strength is not graded here. Sequences can lack the tags named with a protein.

Protein sequences, listed by entry. Tags and fused reporters are not part of them.
UniProt O43684: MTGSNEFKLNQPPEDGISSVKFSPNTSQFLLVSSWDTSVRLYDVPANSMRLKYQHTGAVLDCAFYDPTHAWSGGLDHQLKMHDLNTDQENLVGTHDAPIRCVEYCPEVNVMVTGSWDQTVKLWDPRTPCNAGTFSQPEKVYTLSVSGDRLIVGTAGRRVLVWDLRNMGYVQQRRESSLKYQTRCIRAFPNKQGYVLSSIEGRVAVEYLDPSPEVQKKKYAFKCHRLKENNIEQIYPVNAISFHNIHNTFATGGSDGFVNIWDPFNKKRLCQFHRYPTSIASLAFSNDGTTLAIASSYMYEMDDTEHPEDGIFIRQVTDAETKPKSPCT

Target: T1, His6-Strep-Bub1^ΔK (human) (UniProt O43683)
T1 sequence: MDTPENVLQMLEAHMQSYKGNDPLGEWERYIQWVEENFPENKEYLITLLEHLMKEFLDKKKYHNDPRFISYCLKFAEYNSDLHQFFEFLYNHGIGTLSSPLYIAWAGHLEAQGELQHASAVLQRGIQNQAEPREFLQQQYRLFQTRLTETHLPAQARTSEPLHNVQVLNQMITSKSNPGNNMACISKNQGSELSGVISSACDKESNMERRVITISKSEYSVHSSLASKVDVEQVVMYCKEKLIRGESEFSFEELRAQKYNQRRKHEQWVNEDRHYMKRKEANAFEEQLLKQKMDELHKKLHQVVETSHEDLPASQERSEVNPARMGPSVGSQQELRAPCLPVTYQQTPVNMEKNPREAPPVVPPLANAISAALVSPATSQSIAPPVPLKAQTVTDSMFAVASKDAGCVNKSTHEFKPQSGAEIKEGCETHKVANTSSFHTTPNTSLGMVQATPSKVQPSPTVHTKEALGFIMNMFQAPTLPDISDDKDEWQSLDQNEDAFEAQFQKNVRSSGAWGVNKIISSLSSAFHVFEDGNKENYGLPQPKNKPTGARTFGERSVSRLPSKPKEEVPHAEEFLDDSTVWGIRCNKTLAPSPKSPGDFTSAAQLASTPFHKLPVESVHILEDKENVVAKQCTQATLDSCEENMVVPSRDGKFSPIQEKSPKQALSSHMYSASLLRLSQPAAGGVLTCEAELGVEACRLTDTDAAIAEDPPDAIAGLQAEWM
Assay: co-purification; co-expressed in insect cells; Strep-Tactin (Bub1–Bub3) or glutathione beads (Cdk1–Cyclin B1)

binding: binds
Substance: His6-Bub3 (from UniProt O43684 1-328)
